± gives the standard deviation of the averaged measurements. The entries are a selection whose mix differs from that of the whole data set. Most entries show no effect beyond the scatter of the controls.
Compound: Nc1ncnc2c1ncn2[C@@H]1O[C@H](COP(=O)(O)OP(=O)(O)NP(=O)(O)O)[C@@H](O)[C@H]1O [adenylyl imidodiphosphate]
Assay: NP40-soluble protein abundance relative to vehicle (solubility fold change) (ratio); higher = more soluble protein in presence of AMP-PNP
In short: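 Values are fold changes against the detergent-processed vehicle, based on vsn-normalised intensities. Jurkat crude lysate was treated at eight concentrations from 0.1 to 10 mM (10 min at room temperature, then 3 min at 37 °C), solubilised with 0.8% NP40 and benzonase, ultracentrifuged and analysed by TMT-labelled LC-MS/MS over three independent experiments.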

Chains of the proteins cited; added tags and fusions are not shown. Lines headed by an entry give the natural chain unless they say otherwise; changes in a name come on top.
UniProt Q96DX4: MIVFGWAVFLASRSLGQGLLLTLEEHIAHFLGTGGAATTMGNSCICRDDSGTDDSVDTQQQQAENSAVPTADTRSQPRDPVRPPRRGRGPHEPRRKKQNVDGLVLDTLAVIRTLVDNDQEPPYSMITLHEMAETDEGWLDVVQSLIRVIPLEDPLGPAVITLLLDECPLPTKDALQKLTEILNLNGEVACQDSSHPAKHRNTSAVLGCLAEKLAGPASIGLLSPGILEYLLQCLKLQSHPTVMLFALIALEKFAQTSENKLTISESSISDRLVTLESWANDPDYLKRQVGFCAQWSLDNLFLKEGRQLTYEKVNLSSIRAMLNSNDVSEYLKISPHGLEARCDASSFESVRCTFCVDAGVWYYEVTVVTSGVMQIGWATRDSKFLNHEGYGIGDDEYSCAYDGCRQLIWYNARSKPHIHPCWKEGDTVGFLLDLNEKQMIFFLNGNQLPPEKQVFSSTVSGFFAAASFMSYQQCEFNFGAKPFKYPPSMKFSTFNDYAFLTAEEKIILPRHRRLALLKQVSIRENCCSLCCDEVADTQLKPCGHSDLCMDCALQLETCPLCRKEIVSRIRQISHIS
UniProt Q96B97, whole entry: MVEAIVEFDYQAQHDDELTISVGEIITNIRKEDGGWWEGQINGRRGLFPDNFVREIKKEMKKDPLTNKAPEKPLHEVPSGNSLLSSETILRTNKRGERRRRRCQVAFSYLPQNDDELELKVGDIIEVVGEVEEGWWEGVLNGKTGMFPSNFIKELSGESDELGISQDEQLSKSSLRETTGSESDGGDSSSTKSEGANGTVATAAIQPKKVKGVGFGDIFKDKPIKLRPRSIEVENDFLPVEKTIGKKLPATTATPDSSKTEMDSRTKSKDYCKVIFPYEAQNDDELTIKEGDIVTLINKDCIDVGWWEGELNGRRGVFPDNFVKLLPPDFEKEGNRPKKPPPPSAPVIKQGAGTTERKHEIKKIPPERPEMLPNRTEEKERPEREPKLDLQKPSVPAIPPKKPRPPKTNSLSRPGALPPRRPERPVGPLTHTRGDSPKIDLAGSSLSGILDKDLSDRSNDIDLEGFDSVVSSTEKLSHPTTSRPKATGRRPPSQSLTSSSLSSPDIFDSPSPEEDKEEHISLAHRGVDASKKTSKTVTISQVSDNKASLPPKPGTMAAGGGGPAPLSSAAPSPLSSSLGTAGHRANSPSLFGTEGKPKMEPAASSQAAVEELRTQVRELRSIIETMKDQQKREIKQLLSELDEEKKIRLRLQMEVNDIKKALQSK
UniProt Q96EM0: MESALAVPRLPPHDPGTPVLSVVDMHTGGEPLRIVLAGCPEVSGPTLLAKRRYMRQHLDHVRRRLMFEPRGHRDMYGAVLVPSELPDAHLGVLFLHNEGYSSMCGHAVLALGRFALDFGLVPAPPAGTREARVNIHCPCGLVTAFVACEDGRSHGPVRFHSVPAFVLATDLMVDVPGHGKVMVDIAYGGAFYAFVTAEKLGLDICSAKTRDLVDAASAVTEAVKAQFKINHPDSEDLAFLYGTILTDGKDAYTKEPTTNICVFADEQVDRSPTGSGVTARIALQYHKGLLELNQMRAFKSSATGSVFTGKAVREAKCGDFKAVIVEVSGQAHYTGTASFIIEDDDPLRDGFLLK
UniProt Q96BY9: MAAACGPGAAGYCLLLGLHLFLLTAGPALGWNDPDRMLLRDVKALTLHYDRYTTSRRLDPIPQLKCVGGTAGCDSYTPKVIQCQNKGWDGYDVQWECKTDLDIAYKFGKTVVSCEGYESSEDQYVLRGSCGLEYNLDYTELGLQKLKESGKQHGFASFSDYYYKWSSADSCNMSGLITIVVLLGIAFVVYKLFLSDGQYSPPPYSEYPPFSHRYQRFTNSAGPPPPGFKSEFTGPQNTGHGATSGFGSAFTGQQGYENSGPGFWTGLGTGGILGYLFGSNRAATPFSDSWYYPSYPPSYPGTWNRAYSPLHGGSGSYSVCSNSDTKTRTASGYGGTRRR
UniProt Q96C86: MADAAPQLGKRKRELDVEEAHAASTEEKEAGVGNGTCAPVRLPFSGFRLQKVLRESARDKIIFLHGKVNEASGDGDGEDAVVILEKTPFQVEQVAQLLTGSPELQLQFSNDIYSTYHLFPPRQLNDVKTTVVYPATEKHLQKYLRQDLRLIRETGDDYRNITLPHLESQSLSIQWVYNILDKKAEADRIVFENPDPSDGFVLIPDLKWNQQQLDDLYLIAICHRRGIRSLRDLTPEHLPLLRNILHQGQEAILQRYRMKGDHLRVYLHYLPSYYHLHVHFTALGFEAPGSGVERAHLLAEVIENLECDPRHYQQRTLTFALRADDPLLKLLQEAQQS
UniProt Q92979: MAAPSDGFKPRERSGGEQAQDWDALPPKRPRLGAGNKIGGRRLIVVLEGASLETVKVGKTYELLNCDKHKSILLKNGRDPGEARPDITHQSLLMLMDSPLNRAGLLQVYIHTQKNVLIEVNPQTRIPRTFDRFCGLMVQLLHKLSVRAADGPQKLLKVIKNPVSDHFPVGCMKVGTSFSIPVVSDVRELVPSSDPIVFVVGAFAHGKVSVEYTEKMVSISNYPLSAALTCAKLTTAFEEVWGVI
UniProt Q96EC8: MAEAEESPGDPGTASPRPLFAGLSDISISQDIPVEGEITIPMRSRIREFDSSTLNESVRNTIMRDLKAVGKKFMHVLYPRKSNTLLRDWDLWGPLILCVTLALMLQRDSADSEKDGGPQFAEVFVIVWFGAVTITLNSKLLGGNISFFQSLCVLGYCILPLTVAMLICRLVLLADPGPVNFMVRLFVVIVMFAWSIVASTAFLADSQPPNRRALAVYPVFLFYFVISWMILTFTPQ
UniProt Q96IJ6: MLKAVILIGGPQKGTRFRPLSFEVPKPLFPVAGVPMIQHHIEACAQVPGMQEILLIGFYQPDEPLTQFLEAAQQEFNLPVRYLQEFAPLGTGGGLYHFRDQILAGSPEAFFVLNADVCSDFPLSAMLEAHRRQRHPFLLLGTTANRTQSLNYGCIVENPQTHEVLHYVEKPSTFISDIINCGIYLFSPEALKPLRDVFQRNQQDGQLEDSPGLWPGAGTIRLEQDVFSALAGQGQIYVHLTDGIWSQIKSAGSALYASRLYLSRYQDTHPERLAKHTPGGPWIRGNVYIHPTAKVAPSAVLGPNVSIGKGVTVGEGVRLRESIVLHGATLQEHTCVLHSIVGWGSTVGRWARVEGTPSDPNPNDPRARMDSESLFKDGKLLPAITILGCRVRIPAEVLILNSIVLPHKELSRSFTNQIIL
UniProt Q96JK2, whole entry: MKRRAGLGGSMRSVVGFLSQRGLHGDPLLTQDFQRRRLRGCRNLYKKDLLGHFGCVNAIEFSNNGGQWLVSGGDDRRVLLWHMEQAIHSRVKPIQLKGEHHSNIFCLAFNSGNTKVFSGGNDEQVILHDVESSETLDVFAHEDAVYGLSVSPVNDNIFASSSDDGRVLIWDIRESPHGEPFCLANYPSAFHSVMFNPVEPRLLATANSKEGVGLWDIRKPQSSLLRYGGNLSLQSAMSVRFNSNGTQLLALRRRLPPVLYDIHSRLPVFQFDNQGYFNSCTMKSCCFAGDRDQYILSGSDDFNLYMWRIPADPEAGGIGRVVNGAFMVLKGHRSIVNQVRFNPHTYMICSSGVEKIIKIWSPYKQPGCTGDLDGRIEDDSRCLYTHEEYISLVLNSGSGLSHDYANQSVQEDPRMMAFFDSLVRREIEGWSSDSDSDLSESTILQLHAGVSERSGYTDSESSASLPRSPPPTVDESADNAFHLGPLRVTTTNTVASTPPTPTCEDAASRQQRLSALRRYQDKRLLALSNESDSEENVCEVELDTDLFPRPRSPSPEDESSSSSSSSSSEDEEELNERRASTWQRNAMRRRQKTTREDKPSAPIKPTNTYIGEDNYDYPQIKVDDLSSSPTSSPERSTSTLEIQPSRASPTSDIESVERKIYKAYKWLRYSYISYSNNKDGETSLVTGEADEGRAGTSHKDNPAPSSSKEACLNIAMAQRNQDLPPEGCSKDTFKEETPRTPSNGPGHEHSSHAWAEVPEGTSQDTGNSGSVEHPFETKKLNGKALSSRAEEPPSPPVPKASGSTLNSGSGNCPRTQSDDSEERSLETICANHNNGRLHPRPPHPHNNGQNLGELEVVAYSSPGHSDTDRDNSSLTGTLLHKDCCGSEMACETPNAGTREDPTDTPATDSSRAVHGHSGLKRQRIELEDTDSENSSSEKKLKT
UniProt Q96AE7: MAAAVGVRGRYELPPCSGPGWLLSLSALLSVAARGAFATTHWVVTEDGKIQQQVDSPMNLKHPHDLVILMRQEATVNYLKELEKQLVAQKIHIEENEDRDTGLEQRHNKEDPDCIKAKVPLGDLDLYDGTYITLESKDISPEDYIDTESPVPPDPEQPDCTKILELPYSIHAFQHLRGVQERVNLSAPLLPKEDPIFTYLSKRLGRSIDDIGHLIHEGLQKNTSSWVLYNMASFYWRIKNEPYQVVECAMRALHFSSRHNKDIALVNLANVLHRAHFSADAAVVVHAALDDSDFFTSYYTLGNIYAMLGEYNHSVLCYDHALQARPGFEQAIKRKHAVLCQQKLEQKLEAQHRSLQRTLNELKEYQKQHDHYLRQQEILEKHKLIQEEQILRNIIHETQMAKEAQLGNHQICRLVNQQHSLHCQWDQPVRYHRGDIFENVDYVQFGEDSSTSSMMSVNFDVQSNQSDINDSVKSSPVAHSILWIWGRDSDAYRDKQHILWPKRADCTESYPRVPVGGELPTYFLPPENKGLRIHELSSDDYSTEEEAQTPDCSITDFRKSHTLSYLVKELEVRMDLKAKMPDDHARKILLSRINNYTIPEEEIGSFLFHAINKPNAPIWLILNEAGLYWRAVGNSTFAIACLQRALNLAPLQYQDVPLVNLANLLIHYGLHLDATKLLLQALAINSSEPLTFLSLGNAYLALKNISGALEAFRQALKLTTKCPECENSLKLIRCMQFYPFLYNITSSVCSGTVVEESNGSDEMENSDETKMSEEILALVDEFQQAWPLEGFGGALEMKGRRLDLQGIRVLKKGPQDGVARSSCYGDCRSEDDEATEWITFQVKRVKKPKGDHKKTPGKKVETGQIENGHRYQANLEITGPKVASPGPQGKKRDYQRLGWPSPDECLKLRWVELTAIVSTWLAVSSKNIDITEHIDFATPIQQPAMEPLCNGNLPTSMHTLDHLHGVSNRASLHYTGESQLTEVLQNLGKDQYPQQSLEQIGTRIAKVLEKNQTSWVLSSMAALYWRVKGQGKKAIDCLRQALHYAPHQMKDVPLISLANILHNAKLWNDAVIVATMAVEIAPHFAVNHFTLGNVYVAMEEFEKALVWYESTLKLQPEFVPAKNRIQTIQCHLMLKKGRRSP
UniProt Q96IU4: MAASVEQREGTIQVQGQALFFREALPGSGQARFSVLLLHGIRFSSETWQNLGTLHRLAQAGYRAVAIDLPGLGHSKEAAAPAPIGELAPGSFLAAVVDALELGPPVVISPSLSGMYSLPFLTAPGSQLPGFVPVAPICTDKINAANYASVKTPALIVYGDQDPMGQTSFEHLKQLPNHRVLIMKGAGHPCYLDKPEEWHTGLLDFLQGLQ
UniProt Q96GX2: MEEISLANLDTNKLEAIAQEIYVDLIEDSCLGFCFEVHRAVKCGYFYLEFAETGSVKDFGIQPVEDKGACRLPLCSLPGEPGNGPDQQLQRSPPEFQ
UniProt Q96AP4: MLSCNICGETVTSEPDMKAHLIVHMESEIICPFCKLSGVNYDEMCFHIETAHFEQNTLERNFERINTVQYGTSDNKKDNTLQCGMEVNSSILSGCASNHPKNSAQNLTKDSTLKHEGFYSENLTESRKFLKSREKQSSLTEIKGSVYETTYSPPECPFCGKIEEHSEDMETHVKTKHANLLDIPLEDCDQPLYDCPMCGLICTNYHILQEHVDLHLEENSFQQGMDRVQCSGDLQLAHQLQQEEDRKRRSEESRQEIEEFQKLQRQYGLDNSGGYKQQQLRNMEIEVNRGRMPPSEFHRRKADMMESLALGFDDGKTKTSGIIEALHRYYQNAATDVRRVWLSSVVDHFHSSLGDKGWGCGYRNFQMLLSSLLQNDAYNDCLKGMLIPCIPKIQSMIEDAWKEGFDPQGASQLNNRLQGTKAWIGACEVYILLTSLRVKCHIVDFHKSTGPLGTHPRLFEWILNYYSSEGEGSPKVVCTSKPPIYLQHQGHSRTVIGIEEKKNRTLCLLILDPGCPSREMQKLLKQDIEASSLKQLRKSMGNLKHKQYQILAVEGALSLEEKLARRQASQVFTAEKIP
UniProt Q969R8: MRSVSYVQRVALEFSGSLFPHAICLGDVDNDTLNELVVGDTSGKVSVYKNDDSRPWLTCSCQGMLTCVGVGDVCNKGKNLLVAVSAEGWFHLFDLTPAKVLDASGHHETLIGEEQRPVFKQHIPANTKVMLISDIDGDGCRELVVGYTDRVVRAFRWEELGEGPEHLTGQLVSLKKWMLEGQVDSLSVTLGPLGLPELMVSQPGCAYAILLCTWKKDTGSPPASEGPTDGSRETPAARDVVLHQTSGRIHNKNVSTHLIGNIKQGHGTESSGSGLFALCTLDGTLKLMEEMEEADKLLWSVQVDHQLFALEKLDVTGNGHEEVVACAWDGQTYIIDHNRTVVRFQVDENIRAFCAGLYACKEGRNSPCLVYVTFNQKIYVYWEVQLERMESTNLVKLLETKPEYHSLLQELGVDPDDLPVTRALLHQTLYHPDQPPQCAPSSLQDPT

Target | NP40-soluble protein abundance (concentration: 0.1mM) | NP40-soluble protein abundance (concentration: 0.5mM)
UniProt Q96HD1 and related entries | 1.01 ± 0.014 | 0.978 ± 0.053
RSPRY1 (UniProt Q96DX4) | 1.02 ± 0.026 | 0.986 ± 0.029
EFHD2 (UniProt Q96C19) | 0.958 ± 0.024 | 0.95 ± 0.042
UniProt Q96B97 and related entries | 0.997 ± 0.038 | 1.02 ± 0.053
UniProt Q96BD5 and related entries | 0.982 ± 0.075 | 1.01 ± 0.092
UniProt Q96EM0 | 1.03 ± 0.015 | 1.03 ± 0.017
UniProt Q92974 and related entries | 1.03 ± 0.017 | 0.996 ± 0.023
RCHY1 (UniProt Q96PM5) | 0.994 ± 0.017 | 0.95 ± 0.041
UniProt Q96BY9 and related entries | 1.025 ± 0.0082 | 1.0238 ± 0.001
UniProt Q96D31 and related entries | 1.024 ± 0.0055 | 0.992 ± 0.022
DCPS (UniProt Q96C86) | 0.977 ± 0.022 | 0.966 ± 0.024
UniProt Q96B36 and related entries | 0.992 ± 0.023 | 1 ± 0.015
UniProt Q96DB5 | 1.03 ± 0.014 | 1.007 ± 0.0078
TBRG4 (UniProt Q969Z0) | 0.978 ± 0.018 | 1.01 ± 0.018
UniProt Q96HA8 and related entries | 0.991 ± 0.032 | 0.975 ± 0.021
ZC3HAV1L (UniProt Q96H79) | 1.01 ± 0.029 | 1.02 ± 0.047
UniProt Q96QF0 and related entries | 1.01 ± 0.052 | 1.02 ± 0.027
EMG1 (UniProt Q92979) | 1.02 ± 0.012 | 1.04 ± 0.06
ZKSCAN4 (UniProt Q969J2) | 0.981 ± 0.012 | 0.98322 ± 0.00045
YIPF6 (UniProt Q96EC8) | 1.0231 ± 0.00044 | 1.01 ± 0.039
CCDC43 (UniProt Q96MW1) | 0.972 ± 0.048 | 0.972 ± 0.06
LRRC59 (UniProt Q96AG4) | 0.996 ± 0.066 | 1.06 ± 0.14
UniProt Q96BD8 | 0.968 ± 0.019 | 1 ± 0.029
UniProt Q96BX8 | 1.03 ± 0.047 | 0.994 ± 0.021
DHRS1 (UniProt Q96LJ7) | 0.988 ± 0.025 | 0.977 ± 0.022
UniProt Q96LT9 and related entries | 1.015 ± 0.0028 | 1.01 ± 0.033

Target | NP40-soluble protein abundance (concentration: 0.1mM) | NP40-soluble protein abundance (concentration: 0.5mM)
UniProt Q96KB5 and related entries | 1.01 ± 0.037 | 0.979 ± 0.025
LRRC45 (UniProt Q96CN5) | 0.982 ± 0.029 | 0.976 ± 0.079
MSI2 (UniProt Q96DH6) | 1.01 ± 0.022 | 1.03 ± 0.046
UniProt Q96ME1-4 | 1.01 ± 0.016 | 0.984 ± 0.057
UniProt Q96IJ6 and related entries | 1 ± 0.021 | 1.02 ± 0.018
UniProt Q96JG8 and related entries | 1.007 ± 0.0094 | 1.01 ± 0.017
UniProt Q96QG7 and related entries | 0.99895 ± 0.00069 | 0.95 ± 0.034
UniProt Q96CN4 and related entries | 1 ± 0.011 | 0.9886 ± 0.0095
WDR89 (UniProt Q96FK6) | 1.11 ± 0.087 | 1.05 ± 0.024
UniProt Q96JK2 and related entries | 0.995 ± 0.014 | 1 ± 0.052
UniProt Q96L92 and related entries | 1.02 ± 0.021 | 0.97 ± 0.053
UniProt Q969E2 and related entries | 1.04 ± 0.042 | 0.966 ± 0.0098
UniProt Q96AE4 and related entries | 0.981 ± 0.01 | 0.986 ± 0.033
UniProt Q96AE7 and related entries | 1.01 ± 0.028 | 0.979 ± 0.029
ELP4 (UniProt Q96EB1) | 1.03 ± 0.026 | 0.982 ± 0.044
METTL2A (UniProt Q96IZ6) | 0.992 ± 0.013 | 1.01 ± 0.012
UniProt Q96JM3 | 1 ± 0.022 | 1.02 ± 0.043
ABHD14B (UniProt Q96IU4) | 0.988 ± 0.01 | 1 ± 0.017
ATXN7L3B (UniProt Q96GX2) | 1.01 ± 0.03 | 1.02 ± 0.041
UniProt Q96AP4 and related entries | 1 ± 0.017 | 0.992 ± 0.036
UniProt Q96AJ9 and related entries | 0.988 ± 0.025 | 0.999 ± 0.045
ITFG2 (UniProt Q969R8) | 0.991 ± 0.025 | 0.988 ± 0.034
UniProt Q96L91 and related entries | 1.03 ± 0.031 | 1.02 ± 0.033
USP7 (UniProt Q93009) | 1 ± 0.028 | 0.991 ± 0.059
AIDA (UniProt Q96BJ3) | 0.946 ± 0.039 | 1.03 ± 0.022
RNF25 (UniProt Q96BH1) | 0.972 ± 0.054 | 0.992 ± 0.0026

As entered above:
UniProt Q96AJ9 and related entries – NP40-soluble protein abundance (concentration: 0.1mM): 0.988 ± 0.025
RSPRY1 (UniProt Q96DX4) – NP40-soluble protein abundance (concentration: 0.5mM): 0.986 ± 0.029

Reference: the supplement of paper PMC6411743
